For 1 molecule, binding results are on record in article PMC4459106.

These are yes or no findings as the source states them, for the method shown.

This experiment addresses T1, Active ERK2 (ppERK2), dually phosphorylated on T183 and Y185 (rat (rat ERK2 numbering used throughout)), P63086.
T1 chain: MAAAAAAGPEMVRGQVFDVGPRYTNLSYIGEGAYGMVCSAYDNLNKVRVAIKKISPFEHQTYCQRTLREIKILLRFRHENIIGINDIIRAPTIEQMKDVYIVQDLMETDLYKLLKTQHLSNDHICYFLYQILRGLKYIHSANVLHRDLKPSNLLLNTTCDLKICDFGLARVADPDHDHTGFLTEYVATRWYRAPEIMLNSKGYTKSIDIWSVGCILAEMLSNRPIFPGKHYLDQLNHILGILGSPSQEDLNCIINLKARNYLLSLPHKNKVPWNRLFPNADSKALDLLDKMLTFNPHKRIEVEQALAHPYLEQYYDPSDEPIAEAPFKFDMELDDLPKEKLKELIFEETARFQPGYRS
Put plainly: 15N T2 relaxation NMR; 200 μM 2H,13C,15N-labeled ppERK2 with 2 mM Elk_(387-399); 20 mM MES pH 6.4, 150 mM NaCl, 2 mM DTT, 200 μM EDTA; 25 °C, 600 MHz; both purified. As to conditions: remark: other sources report otherwise.

B1: Active ERK2 (ppERK2), dually phosphorylated on T183 and Y185, P63086 1-358 (enzyme)
chain: T1 chain
modifications: here or on the partner: phosphothreonine at T183, phosphotyrosine at Y185; phosphothreonine at T183, phosphotyrosine at Y185
B1: the binding entry is recorded as “no binding (tested: 200 μM)”.
